Results are given in words; binding and its absence hold for the method and conditions named. In cells and extracts the contact can be indirect. Some entries that bind do so weakly or less than the wild type.
Target: T1, wild-type NRF2 from the WT-NRF2 plasmid (UniProt Q16236)
T1 sequence: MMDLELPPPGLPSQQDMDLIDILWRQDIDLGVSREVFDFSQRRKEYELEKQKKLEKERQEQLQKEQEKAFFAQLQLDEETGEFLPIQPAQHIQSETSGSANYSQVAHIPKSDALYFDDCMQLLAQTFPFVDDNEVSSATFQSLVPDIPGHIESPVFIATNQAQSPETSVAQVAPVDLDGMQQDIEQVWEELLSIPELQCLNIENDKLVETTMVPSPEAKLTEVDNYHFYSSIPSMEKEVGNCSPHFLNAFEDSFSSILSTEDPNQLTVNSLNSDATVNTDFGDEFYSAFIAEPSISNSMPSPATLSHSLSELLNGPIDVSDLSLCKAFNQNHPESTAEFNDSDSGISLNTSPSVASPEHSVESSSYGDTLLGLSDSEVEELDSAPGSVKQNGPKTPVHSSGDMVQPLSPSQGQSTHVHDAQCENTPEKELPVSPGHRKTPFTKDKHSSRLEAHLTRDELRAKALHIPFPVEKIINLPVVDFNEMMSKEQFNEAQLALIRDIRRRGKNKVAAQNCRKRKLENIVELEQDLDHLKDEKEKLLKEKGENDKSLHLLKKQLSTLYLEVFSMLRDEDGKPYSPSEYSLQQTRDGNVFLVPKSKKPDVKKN
Experiment: co-IP; HEK293T cells transfected with WT-NRF2 or Mut-NRF2 plasmid (Figure 6E); captured by anti-NRF2 antibody with Protein A/G PLUS-Agarose, blot with anti-NDUFS8; NDUFS8/NRF2 ratio quantified, n = 6

Protein sequences, listed by entry. Tags and fused reporters are not part of them. Residues count along the entry.
UniProt O00217, residues 35-210: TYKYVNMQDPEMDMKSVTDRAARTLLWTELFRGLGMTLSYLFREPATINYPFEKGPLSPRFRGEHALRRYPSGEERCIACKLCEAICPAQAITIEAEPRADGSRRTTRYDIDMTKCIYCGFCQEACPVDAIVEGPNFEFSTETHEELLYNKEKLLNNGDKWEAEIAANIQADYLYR

binding: binds
Substance: NADH dehydrogenase (ubiquinone) Fe-S protein 8 (NDUFS8) in HEK293T cells (from UniProt O00217 35-210)
